Measured values as given in patent US20160222085A1 (CHILDREN S HOSPITAL OF PHILADELPHIA, published 2016).
No constants are given. Whether binding was seen depends on the method and setting. Some entries that bind do so weakly or less than the wild type.

Assays:
[1] = molecular target: T1, Oregon Green 488 maleimide-modified BR (OG488-BR) (human); assay: fluorescence anisotropy; thrombin-pretreated, hirudin-quenched FV-810 R1545Q titrated into 30 nM OG488-BR with 50 uM PCPS
T1 sequence (peptide, Oregon Green 488 maleimide on the added N-terminal Cys): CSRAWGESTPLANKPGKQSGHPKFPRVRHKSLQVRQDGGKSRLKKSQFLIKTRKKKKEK

[2] = molecular target: T1, Oregon Green 488 maleimide-modified BR (OG488-BR) (human); assay: fluorescence anisotropy; thrombin-pretreated, hirudin-quenched FV-810 QQ titrated into 30 nM OG488-BR with 50 uM PCPS
[3] = molecular target: T1, Oregon Green 488 maleimide-modified BR (OG488-BR) (human); assay: fluorescence anisotropy; buffer-pretreated FV-810 QQ titrated into 30 nM OG488-BR with 50 uM PCPS
[4] = molecular target: T1, Oregon Green 488 maleimide-modified BR (OG488-BR) (human); assay: fluorescence anisotropy; buffer-pretreated FV-810 R709Q titrated into 30 nM OG488-BR with 50 uM PCPS
[5] = molecular target: T1, Oregon Green 488 maleimide-modified BR (OG488-BR) (human); assay: fluorescence anisotropy; buffer-pretreated FV-810 R1545Q titrated into 30 nM OG488-BR with 50 uM PCPS

In the case of “FV-810^R1545Q pretreated with thrombin (from UniProt P12259 29-737; P12259 738-838; P12259 1520-2224)”, the binding [1] is reported as “binds”.

B1: FV-810^QQ (other, human, UniProt P12259 29-838, looked up)
chain: AQLRQFYVAAQGISWSYRPEPTNSSLNLSVTSFKKIVYREYEPYFKKEKPQSTISGLLGPTLYAEVGDIIKVHFKNKADKPLSIHPQGIRYSKLSEGASYLDHTFPAEKMDDAVAPGREYTYEWSISEDSGPTHDDPPCLTHIYYSHENLIEDFNSGLIGPLLICKKGTLTEGGTQKTFDKQIVLLFAVFDESKSWSQSSSLMYTVNGYVNGTMPDITVCAHDHISWHLLGMSSGPELFSIHFNGQVLEQNHHKVSAITLVSATSTTANMTVGPEGKWIISSLTPKHLQAGMQAYIDIKNCPKKTRNLKKITREQRRHMKRWEYFIAAEEVIWDYAPVIPANMDKKYRSQHLDNFSNQIGKHYKKVMYTQYEDESFTKHTVNPNMKEDGILGPIIRAQVRDTLKIVFKNMASRPYSIYPHGVTFSPYEDEVNSSFTSGRNNTMIRAVQPGETYTYKWNILEFDEPTENDAQCLTRPYYSDVDIMRDIASGLIGLLLICKSRSLDRRGIQRAADIEQQAVFAVFDENKSWYLEDNINKFCENPDEVKRDDPKFYESNIMSTINGYVPESITTLGFCFDDTVQWHFCSVGTQNEILTIHFTGHSFIYGKRHEDTLTLFPMRGESVTVTMDNVGTWMLTSMNSSPRSKKLRLKFRDVKCIPDDDEDSYEIFEPPESTVMATRKMHDRLEPEDEESDADYDYQNRLAAALGIQSFRNSSLNQEEEEFNLTALALENGTEFVSSNTDIIVGSNYSSPSNISKFTVNNLAEPQKAPSHQQATTAGSPLRHLIGKNSVLNSSTAEHSSPYSEDPIEDTDYIEIIPKEEVQSSEDDYAEIDYVPYDDPYKTDVRTNINSSRDPDNIAAWYLQSNNGNRRNYYIAAEEISWDYSEFVQRETDIEDSDDIPEDTTYKKVVFRKYLDSTFTKRDPRGEYEEHLGILGPIIRAEVDDVIQVRFKNLASRPYSLHAHGLSYEKSSEGKTYEDDSPEWFKEDNAVQPNSSYTYVWHATERSGPESPGSACRAWAYYSAVNPEKDIHSGLIGPLLICQKGILHKDSNMPMDMREFVLLFMTFDEKKSWYYEKKSRSSWRLTSSEMKKSHEFHAINGMIYSLPGLKMYEQEWVRLHLLNIGGSQDIHVVHFHGQTLLENGNKQHQLGVWPLLPGSFKTLEMKASKPGWWLLNTEVGENQRAGMQTPFLIMDRDCRMPMGLSTGIISDSQIKASEFLGYWEPRLARLNNGGSYNAWSVEKLAAEFASKPWIQVDMQKEVIITGIQTQGAKHYLKSCYTTEFYVAYSSNQINWQIFKGNSTRNVMYFNGNSDASTIKENQFDPPIVARYIRISPTRAYNRPTLRLELQGCEVNGCSTPLGMENGKIENKQITASSFKKSWWGDYWEPFRARLNAQGRVNAWQAKANNNKQWLEIDLLKIKKITAIITQGCKSLSSEMYVKSYTIHYSEQGVEWKPYRLKSSMVDKIFEGNTNTKGHVKNFFNPPIISRFIRVIPKTWNQSIALRLELFGCDIY
notes: range 1-810;range 1492-2196; Both thrombin sites (Arg709 and Arg1545) changed to Gln; The same molecule is used for the thrombin-pretreated sample, since both cleavage sites are removed; the assay field says where thrombin pretreatment was used
With B1 the binding [2] was “binds” and the binding [3] was “binds”.

B2: FV-810^R709Q (other, human, UniProt P12259 29-838, looked up)
chain: AQLRQFYVAAQGISWSYRPEPTNSSLNLSVTSFKKIVYREYEPYFKKEKPQSTISGLLGPTLYAEVGDIIKVHFKNKADKPLSIHPQGIRYSKLSEGASYLDHTFPAEKMDDAVAPGREYTYEWSISEDSGPTHDDPPCLTHIYYSHENLIEDFNSGLIGPLLICKKGTLTEGGTQKTFDKQIVLLFAVFDESKSWSQSSSLMYTVNGYVNGTMPDITVCAHDHISWHLLGMSSGPELFSIHFNGQVLEQNHHKVSAITLVSATSTTANMTVGPEGKWIISSLTPKHLQAGMQAYIDIKNCPKKTRNLKKITREQRRHMKRWEYFIAAEEVIWDYAPVIPANMDKKYRSQHLDNFSNQIGKHYKKVMYTQYEDESFTKHTVNPNMKEDGILGPIIRAQVRDTLKIVFKNMASRPYSIYPHGVTFSPYEDEVNSSFTSGRNNTMIRAVQPGETYTYKWNILEFDEPTENDAQCLTRPYYSDVDIMRDIASGLIGLLLICKSRSLDRRGIQRAADIEQQAVFAVFDENKSWYLEDNINKFCENPDEVKRDDPKFYESNIMSTINGYVPESITTLGFCFDDTVQWHFCSVGTQNEILTIHFTGHSFIYGKRHEDTLTLFPMRGESVTVTMDNVGTWMLTSMNSSPRSKKLRLKFRDVKCIPDDDEDSYEIFEPPESTVMATRKMHDRLEPEDEESDADYDYQNRLAAALGIQSFRNSSLNQEEEEFNLTALALENGTEFVSSNTDIIVGSNYSSPSNISKFTVNNLAEPQKAPSHQQATTAGSPLRHLIGKNSVLNSSTAEHSSPYSEDPIEDTDYIEIIPKEEVQSSEDDYAEIDYVPYDDPYKTDVRTNINSSRDPDNIAAWYLRSNNGNRRNYYIAAEEISWDYSEFVQRETDIEDSDDIPEDTTYKKVVFRKYLDSTFTKRDPRGEYEEHLGILGPIIRAEVDDVIQVRFKNLASRPYSLHAHGLSYEKSSEGKTYEDDSPEWFKEDNAVQPNSSYTYVWHATERSGPESPGSACRAWAYYSAVNPEKDIHSGLIGPLLICQKGILHKDSNMPMDMREFVLLFMTFDEKKSWYYEKKSRSSWRLTSSEMKKSHEFHAINGMIYSLPGLKMYEQEWVRLHLLNIGGSQDIHVVHFHGQTLLENGNKQHQLGVWPLLPGSFKTLEMKASKPGWWLLNTEVGENQRAGMQTPFLIMDRDCRMPMGLSTGIISDSQIKASEFLGYWEPRLARLNNGGSYNAWSVEKLAAEFASKPWIQVDMQKEVIITGIQTQGAKHYLKSCYTTEFYVAYSSNQINWQIFKGNSTRNVMYFNGNSDASTIKENQFDPPIVARYIRISPTRAYNRPTLRLELQGCEVNGCSTPLGMENGKIENKQITASSFKKSWWGDYWEPFRARLNAQGRVNAWQAKANNNKQWLEIDLLKIKKITAIITQGCKSLSSEMYVKSYTIHYSEQGVEWKPYRLKSSMVDKIFEGNTNTKGHVKNFFNPPIISRFIRVIPKTWNQSIALRLELFGCDIY
notes: range 1-810;range 1492-2196; mature numbering
B2 was tested, and the binding [4] was “binds”.

B3: FV-810^R1545Q (other, human, UniProt P12259 29-838, looked up)
chain: AQLRQFYVAAQGISWSYRPEPTNSSLNLSVTSFKKIVYREYEPYFKKEKPQSTISGLLGPTLYAEVGDIIKVHFKNKADKPLSIHPQGIRYSKLSEGASYLDHTFPAEKMDDAVAPGREYTYEWSISEDSGPTHDDPPCLTHIYYSHENLIEDFNSGLIGPLLICKKGTLTEGGTQKTFDKQIVLLFAVFDESKSWSQSSSLMYTVNGYVNGTMPDITVCAHDHISWHLLGMSSGPELFSIHFNGQVLEQNHHKVSAITLVSATSTTANMTVGPEGKWIISSLTPKHLQAGMQAYIDIKNCPKKTRNLKKITREQRRHMKRWEYFIAAEEVIWDYAPVIPANMDKKYRSQHLDNFSNQIGKHYKKVMYTQYEDESFTKHTVNPNMKEDGILGPIIRAQVRDTLKIVFKNMASRPYSIYPHGVTFSPYEDEVNSSFTSGRNNTMIRAVQPGETYTYKWNILEFDEPTENDAQCLTRPYYSDVDIMRDIASGLIGLLLICKSRSLDRRGIQRAADIEQQAVFAVFDENKSWYLEDNINKFCENPDEVKRDDPKFYESNIMSTINGYVPESITTLGFCFDDTVQWHFCSVGTQNEILTIHFTGHSFIYGKRHEDTLTLFPMRGESVTVTMDNVGTWMLTSMNSSPRSKKLRLKFRDVKCIPDDDEDSYEIFEPPESTVMATRKMHDRLEPEDEESDADYDYQNRLAAALGIRSFRNSSLNQEEEEFNLTALALENGTEFVSSNTDIIVGSNYSSPSNISKFTVNNLAEPQKAPSHQQATTAGSPLRHLIGKNSVLNSSTAEHSSPYSEDPIEDTDYIEIIPKEEVQSSEDDYAEIDYVPYDDPYKTDVRTNINSSRDPDNIAAWYLQSNNGNRRNYYIAAEEISWDYSEFVQRETDIEDSDDIPEDTTYKKVVFRKYLDSTFTKRDPRGEYEEHLGILGPIIRAEVDDVIQVRFKNLASRPYSLHAHGLSYEKSSEGKTYEDDSPEWFKEDNAVQPNSSYTYVWHATERSGPESPGSACRAWAYYSAVNPEKDIHSGLIGPLLICQKGILHKDSNMPMDMREFVLLFMTFDEKKSWYYEKKSRSSWRLTSSEMKKSHEFHAINGMIYSLPGLKMYEQEWVRLHLLNIGGSQDIHVVHFHGQTLLENGNKQHQLGVWPLLPGSFKTLEMKASKPGWWLLNTEVGENQRAGMQTPFLIMDRDCRMPMGLSTGIISDSQIKASEFLGYWEPRLARLNNGGSYNAWSVEKLAAEFASKPWIQVDMQKEVIITGIQTQGAKHYLKSCYTTEFYVAYSSNQINWQIFKGNSTRNVMYFNGNSDASTIKENQFDPPIVARYIRISPTRAYNRPTLRLELQGCEVNGCSTPLGMENGKIENKQITASSFKKSWWGDYWEPFRARLNAQGRVNAWQAKANNNKQWLEIDLLKIKKITAIITQGCKSLSSEMYVKSYTIHYSEQGVEWKPYRLKSSMVDKIFEGNTNTKGHVKNFFNPPIISRFIRVIPKTWNQSIALRLELFGCDIY
notes: as for B2
With B3 the binding [5] was “binds”.
